For three molecules, binding results are on record in PMC9985635.

By UniProt entry, the sequences of proteins in these tests, tags left out.
UniProt Q04206: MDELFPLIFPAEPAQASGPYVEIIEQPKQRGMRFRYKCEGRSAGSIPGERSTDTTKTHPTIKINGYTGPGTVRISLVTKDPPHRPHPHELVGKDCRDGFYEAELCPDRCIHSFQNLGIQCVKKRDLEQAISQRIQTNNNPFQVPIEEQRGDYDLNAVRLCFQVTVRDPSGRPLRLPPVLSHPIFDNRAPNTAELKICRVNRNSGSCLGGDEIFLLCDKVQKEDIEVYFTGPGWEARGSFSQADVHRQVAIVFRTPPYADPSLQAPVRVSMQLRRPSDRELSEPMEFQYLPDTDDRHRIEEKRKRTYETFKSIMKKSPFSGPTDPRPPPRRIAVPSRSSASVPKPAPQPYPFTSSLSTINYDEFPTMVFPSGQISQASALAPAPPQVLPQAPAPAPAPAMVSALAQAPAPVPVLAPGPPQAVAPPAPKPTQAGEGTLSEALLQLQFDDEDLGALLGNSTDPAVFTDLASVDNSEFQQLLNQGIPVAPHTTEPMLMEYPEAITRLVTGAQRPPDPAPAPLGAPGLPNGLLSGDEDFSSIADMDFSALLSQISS

In experiment [1] the target is T1, RB, wild type (co-IPs of Supplementary Figs. 15J-M and 16L-P; overexpressed where stated) (UniProt P06400).
T1 sequence: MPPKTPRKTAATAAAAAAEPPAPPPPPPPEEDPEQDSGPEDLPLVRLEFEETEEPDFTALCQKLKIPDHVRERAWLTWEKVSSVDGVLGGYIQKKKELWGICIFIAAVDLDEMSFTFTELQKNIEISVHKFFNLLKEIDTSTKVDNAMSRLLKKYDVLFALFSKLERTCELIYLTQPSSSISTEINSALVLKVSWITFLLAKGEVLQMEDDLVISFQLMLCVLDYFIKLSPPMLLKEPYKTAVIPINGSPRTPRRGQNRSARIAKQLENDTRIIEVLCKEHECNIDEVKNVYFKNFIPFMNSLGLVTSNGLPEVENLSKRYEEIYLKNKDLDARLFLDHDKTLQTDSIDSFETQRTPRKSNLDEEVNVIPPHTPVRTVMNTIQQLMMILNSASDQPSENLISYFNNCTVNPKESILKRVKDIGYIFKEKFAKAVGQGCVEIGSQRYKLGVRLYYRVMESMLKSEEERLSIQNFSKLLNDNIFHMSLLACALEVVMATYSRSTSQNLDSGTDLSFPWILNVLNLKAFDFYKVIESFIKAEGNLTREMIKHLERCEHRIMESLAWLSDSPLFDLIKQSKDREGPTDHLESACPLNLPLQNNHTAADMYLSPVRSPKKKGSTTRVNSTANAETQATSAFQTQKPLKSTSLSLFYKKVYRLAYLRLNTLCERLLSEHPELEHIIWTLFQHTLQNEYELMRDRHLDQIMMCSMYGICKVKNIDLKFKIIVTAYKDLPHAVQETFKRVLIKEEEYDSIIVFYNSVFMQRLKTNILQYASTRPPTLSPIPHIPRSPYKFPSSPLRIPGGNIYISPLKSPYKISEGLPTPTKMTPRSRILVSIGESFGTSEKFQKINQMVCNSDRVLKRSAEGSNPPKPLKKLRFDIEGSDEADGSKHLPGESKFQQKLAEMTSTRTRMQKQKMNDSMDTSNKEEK
The experiment in a line: co-IP; cells with LKB1, CDK4 or RB constructs overexpressed (cell line and baits not shown), with or without palbociclib; Cell Lysis Buffer for Western & IP, antibody overnight at 4 °C, protein A/G agarose beads 2 h; immunoblot.

Experiment [2] has as its target T2, LKB1 (H1299 cells expressing intact LKB1) (human (endogenous in H1299)) (UniProt Q15831).
T2 sequence: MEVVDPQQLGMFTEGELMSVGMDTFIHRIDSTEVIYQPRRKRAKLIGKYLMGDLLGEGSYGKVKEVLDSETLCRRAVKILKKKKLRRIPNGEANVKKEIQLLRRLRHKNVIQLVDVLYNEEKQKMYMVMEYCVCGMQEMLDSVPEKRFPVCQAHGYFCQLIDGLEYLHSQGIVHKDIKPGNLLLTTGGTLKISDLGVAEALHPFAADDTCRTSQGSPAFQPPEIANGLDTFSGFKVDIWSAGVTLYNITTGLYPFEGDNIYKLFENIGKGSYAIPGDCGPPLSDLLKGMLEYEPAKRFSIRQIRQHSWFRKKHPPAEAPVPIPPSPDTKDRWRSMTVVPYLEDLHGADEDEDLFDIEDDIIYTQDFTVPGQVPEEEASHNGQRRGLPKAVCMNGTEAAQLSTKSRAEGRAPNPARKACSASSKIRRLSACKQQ
The experiment in a line: co-IP; H1299 cells expressing intact LKB1; Cell Lysis Buffer for Western & IP, antibody overnight at 4 °C, protein A/G agarose beads 2 h; immunoblot.

The target of experiment [3] is T3, LKB1, wild type, overexpressed or reconstituted (co-IPs of Supplementary Figs. 15J-M and 16L-P) (UniProt Q15831).
T3 sequence: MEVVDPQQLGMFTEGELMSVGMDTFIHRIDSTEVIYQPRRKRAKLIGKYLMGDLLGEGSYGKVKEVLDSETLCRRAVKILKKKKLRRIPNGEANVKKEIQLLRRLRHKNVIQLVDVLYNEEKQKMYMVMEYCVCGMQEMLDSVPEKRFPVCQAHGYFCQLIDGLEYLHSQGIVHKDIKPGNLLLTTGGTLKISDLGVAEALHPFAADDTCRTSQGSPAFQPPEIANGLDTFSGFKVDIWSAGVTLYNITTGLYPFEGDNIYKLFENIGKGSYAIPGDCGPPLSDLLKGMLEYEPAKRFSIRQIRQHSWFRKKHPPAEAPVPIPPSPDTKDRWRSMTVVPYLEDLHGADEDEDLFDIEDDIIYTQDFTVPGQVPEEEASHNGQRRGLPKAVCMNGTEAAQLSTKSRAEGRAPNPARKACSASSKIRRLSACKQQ
The experiment can be described thus: co-IP; cells with LKB1, CDK4 or RB constructs overexpressed (cell line and baits not shown), with or without palbociclib; Cell Lysis Buffer for Western & IP, antibody overnight at 4 °C, protein A/G agarose beads 2 h; immunoblot.

Results are given in words; binding and its absence hold for the method and conditions named. In cells and extracts the contact can be indirect. Some entries that bind do so weakly or less than the wild type.

For p65 (from UniProt Q04206 1-551), in experiment [1], the binding entry is “binds”.

B1: retinoblastoma protein RB (H1299 cells) (protein, UniProt P06400 1-928)
chain: MPPKTPRKTAATAAAAAAEPPAPPPPPPPEEDPEQDSGPEDLPLVRLEFEETEEPDFTALCQKLKIPDHVRERAWLTWEKVSSVDGVLGGYIQKKKELWGICIFIAAVDLDEMSFTFTELQKNIEISVHKFFNLLKEIDTSTKVDNAMSRLLKKYDVLFALFSKLERTCELIYLTQPSSSISTEINSALVLKVSWITFLLAKGEVLQMEDDLVISFQLMLCVLDYFIKLSPPMLLKEPYKTAVIPINGSPRTPRRGQNRSARIAKQLENDTRIIEVLCKEHECNIDEVKNVYFKNFIPFMNSLGLVTSNGLPEVENLSKRYEEIYLKNKDLDARLFLDHDKTLQTDSIDSFETQRTPRKSNLDEEVNVIPPHTPVRTVMNTIQQLMMILNSASDQPSENLISYFNNCTVNPKESILKRVKDIGYIFKEKFAKAVGQGCVEIGSQRYKLGVRLYYRVMESMLKSEEERLSIQNFSKLLNDNIFHMSLLACALEVVMATYSRSTSQNLDSGTDLSFPWILNVLNLKAFDFYKVIESFIKAEGNLTREMIKHLERCEHRIMESLAWLSDSPLFDLIKQSKDREGPTDHLESACPLNLPLQNNHTAADMYLSPVRSPKKKGSTTRVNSTANAETQATSAFQTQKPLKSTSLSLFYKKVYRLAYLRLNTLCERLLSEHPELEHIIWTLFQHTLQNEYELMRDRHLDQIMMCSMYGICKVKNIDLKFKIIVTAYKDLPHAVQETFKRVLIKEEEYDSIIVFYNSVFMQRLKTNILQYASTRPPTLSPIPHIPRSPYKFPSSPLRIPGGNIYISPLKSPYKISEGLPTPTKMTPRSRILVSIGESFGTSEKFQKINQMVCNSDRVLKRSAEGSNPPKPLKKLRFDIEGSDEADGSKHLPGESKFQQKLAEMTSTRTRMQKQKMNDSMDTSNKEEK
As for B1, the binding result in experiment [2] is recorded as “binds”.

B2: RB, wild type (co-IPs of Supplementary Figs. 15J-M and 16L-P; overexpressed where stated) (protein, UniProt P06400 1-928)
chain: MPPKTPRKTAATAAAAAAEPPAPPPPPPPEEDPEQDSGPEDLPLVRLEFEETEEPDFTALCQKLKIPDHVRERAWLTWEKVSSVDGVLGGYIQKKKELWGICIFIAAVDLDEMSFTFTELQKNIEISVHKFFNLLKEIDTSTKVDNAMSRLLKKYDVLFALFSKLERTCELIYLTQPSSSISTEINSALVLKVSWITFLLAKGEVLQMEDDLVISFQLMLCVLDYFIKLSPPMLLKEPYKTAVIPINGSPRTPRRGQNRSARIAKQLENDTRIIEVLCKEHECNIDEVKNVYFKNFIPFMNSLGLVTSNGLPEVENLSKRYEEIYLKNKDLDARLFLDHDKTLQTDSIDSFETQRTPRKSNLDEEVNVIPPHTPVRTVMNTIQQLMMILNSASDQPSENLISYFNNCTVNPKESILKRVKDIGYIFKEKFAKAVGQGCVEIGSQRYKLGVRLYYRVMESMLKSEEERLSIQNFSKLLNDNIFHMSLLACALEVVMATYSRSTSQNLDSGTDLSFPWILNVLNLKAFDFYKVIESFIKAEGNLTREMIKHLERCEHRIMESLAWLSDSPLFDLIKQSKDREGPTDHLESACPLNLPLQNNHTAADMYLSPVRSPKKKGSTTRVNSTANAETQATSAFQTQKPLKSTSLSLFYKKVYRLAYLRLNTLCERLLSEHPELEHIIWTLFQHTLQNEYELMRDRHLDQIMMCSMYGICKVKNIDLKFKIIVTAYKDLPHAVQETFKRVLIKEEEYDSIIVFYNSVFMQRLKTNILQYASTRPPTLSPIPHIPRSPYKFPSSPLRIPGGNIYISPLKSPYKISEGLPTPTKMTPRSRILVSIGESFGTSEKFQKINQMVCNSDRVLKRSAEGSNPPKPLKKLRFDIEGSDEADGSKHLPGESKFQQKLAEMTSTRTRMQKQKMNDSMDTSNKEEK
In the case of B2, in experiment [3], the binding entry is listed as “binds”.
